Laboratory results: PubChem BioAssay AID652259 (Drosophila RNAi Screening Center, 2013)
Screen: 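Identify new Wingless signalling regulators in fly cells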 (primary screen). System: Drosophila clone 8 imaginal disc epithelial cells. Reagents: long dsRNA against Drosophila genes. Challenge: pathway stimulated by co-transfected Wingless expression plasmid. Measurement: 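Dual luciferase reads per well after Wingless plasmid stimulation: reporter firefly light and Renilla control light; activity is firefly divided by Renilla, a ratio not deposited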. Direction: firefly reporter light: higher = more Wg reporter light, before normalisation; Renilla control light: higher = more transfected or surviving cells. Hit rule: 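a knock-down is a candidate when at least two out of four statistical tests show it departing from its plate mean; one test alone signals a weak candidate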. Calls: active = candidate regulator (raises or lowers reporter); inactive = not a candidate.
The screen tested about 22,000 reagents; this is an unselected part of those that have a named target and a result. Over the whole deposit, 233 (1.1%) are marked active. 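Light values are raw, unnormalised plate reads; the ratio scores behind the reporter calls were not deposited.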 No sequences are given here. Not given: the amount of reagent, the time to read-out, the dose of the treatment.

With magu, what does the deposit list?
firefly reporter light, replicate 1: 8229; Renilla control light, replicate 1: 2732; activity call: inactive

How did the screen score PGRP-LB?
firefly reporter light, replicate 1: 10439; Renilla control light, replicate 1: 3432; activity call: inactive

For mub, what was measured?
firefly reporter light, replicate 1: 5997; Renilla control light, replicate 1: 3152; activity call: inactive

Which result is listed for CycK?
firefly reporter light, replicate 1: 18839; Renilla control light, replicate 1: 4199; activity call: inactive

How did the screen score CG15412?
firefly reporter light, replicate 1: 1880; firefly reporter light, replicate 2: 4768; Renilla control light, replicate 1: 988; Renilla control light, replicate 2: 995; activity call: inactive

Which result is listed for knrl?
firefly reporter light, replicate 1: 9730; Renilla control light, replicate 1: 3612; activity call: inactive

With CG12084, what does the deposit list?
firefly reporter light, replicate 1: 25696; Renilla control light, replicate 1: 5920; activity call: inactive

Which result is listed for CG30001?
firefly reporter light, replicate 1: 19545; Renilla control light, replicate 1: 9529; activity call: inactive

How did the screen score CG12360 (retired record)?
firefly reporter light, replicate 1: 20108; Renilla control light, replicate 1: 4768; activity call: inactive

Which result is listed for CG18231?
firefly reporter light, replicate 1: 7654; Renilla control light, replicate 1: 2487; activity call: inactive

How did the screen score Pis?
firefly reporter light, replicate 1: 25325; Renilla control light, replicate 1: 10984; activity call: inactive

Which result is listed for PIG-H?
firefly reporter light, replicate 1: 22163; Renilla control light, replicate 1: 6516; activity call: inactive

Which result is listed for Ser7?
firefly reporter light, replicate 1: 1765; firefly reporter light, replicate 2: 4563; Renilla control light, replicate 1: 912; Renilla control light, replicate 2: 1575; activity call: inactive

What is on record for Jon99Ci?
firefly reporter light, replicate 1: 8253; Renilla control light, replicate 1: 3193; activity call: inactive

For CG34459, what was measured?
firefly reporter light, replicate 1: 4955; Renilla control light, replicate 1: 2528; activity call: inactive

What is on record for smo?
firefly reporter light, replicate 1: 7872; Renilla control light, replicate 1: 3845; activity call: inactive

What is on record for Cyp4ac1?
firefly reporter light, replicate 1: 19232; firefly reporter light, replicate 2: 7.46e5; Renilla control light, replicate 1: 8112; Renilla control light, replicate 2: 2.75e5; activity call: inactive

With Kal1, how do the results read?
firefly reporter light, replicate 1: 1120; firefly reporter light, replicate 2: 4695; Renilla control light, replicate 1: 752; Renilla control light, replicate 2: 1298; activity call: inactive

For pont, how do the results read?
firefly reporter light, replicate 1: 14592; Renilla control light, replicate 1: 3425; activity call: inactive

How did the screen score Grip71?
firefly reporter light, replicate 1: 2325; firefly reporter light, replicate 2: 7684; Renilla control light, replicate 1: 252; Renilla control light, replicate 2: 3254; activity call: inactive

With r-cup, how do the results read?
firefly reporter light, replicate 1: 17904; Renilla control light, replicate 1: 7734; activity call: inactive

What is on record for iPLA2-VIA?
firefly reporter light, replicate 1: 5579; Renilla control light, replicate 1: 2256; activity call: inactive

What is on record for Hsf?
firefly reporter light, replicate 1: 13344; Renilla control light, replicate 1: 4226; activity call: inactive

What is on record for Alp4?
firefly reporter light, replicate 1: 7076; Renilla control light, replicate 1: 3237; activity call: inactive

Which result is listed for ncd?
firefly reporter light, replicate 1: 1744; firefly reporter light, replicate 2: 4541; Renilla control light, replicate 1: 744; Renilla control light, replicate 2: 1147; activity call: inactive

How did the screen score wech?
firefly reporter light, replicate 1: 11448; Renilla control light, replicate 1: 4555; activity call: inactive

With ppk7, how do the results read?
firefly reporter light, replicate 1: 1937; firefly reporter light, replicate 2: 3883; Renilla control light, replicate 1: 249; Renilla control light, replicate 2: 1952; activity call: inactive

For VhaM9.7-a, what was measured?
firefly reporter light, replicate 1: 6624; Renilla control light, replicate 1: 3297; activity call: inactive

For CG14419, what was measured?
firefly reporter light, replicate 1: 28355; Renilla control light, replicate 1: 18307; activity call: inactive

For CG7460, what was measured?
firefly reporter light, replicate 1: 5143; Renilla control light, replicate 1: 2288; activity call: inactive

For CG14605, what was measured?
firefly reporter light, replicate 1: 11834; Renilla control light, replicate 1: 3206; activity call: inactive

What is on record for CG2082?
firefly reporter light, replicate 1: 8832; Renilla control light, replicate 1: 3336; activity call: inactive

Sorted by “Renilla control light, replicate 1” (lowest first): some entries from above
Ser7: firefly reporter light, replicate 1 = 1765; firefly reporter light, replicate 2 = 4563; Renilla control light, replicate 1 = 912; Renilla control light, replicate 2 = 1575; activity call = inactive
CG34459: firefly reporter light, replicate 1 = 4955; Renilla control light, replicate 1 = 2528; activity call = inactive
Jon99Ci: firefly reporter light, replicate 1 = 8253; Renilla control light, replicate 1 = 3193; activity call = inactive
smo: firefly reporter light, replicate 1 = 7872; Renilla control light, replicate 1 = 3845; activity call = inactive
